Assay results as given in publication PMC5006980.
These are yes or no findings as the source states them, for the method shown. Tags and fused reporters may be left off the sequences shown.

biological target: full-length PFV Gag fused to the N-terminus of the GAL4 DNA binding domain (Gag-DB) (prototype foamy virus (PFV)); assay: two-hybrid; directed Y2H, Matchmaker System, S. cerevisiae AH109; baits fused to GAL4 DB, preys fused to GAL4 AD; growth on quadruple-dropout (-Leu/-Trp/-Ade/-His) agar after two to four days at 30°C

Binder	binding
polo-box domain of human PLK4 fused to the GAL4 activation domain (domain or fragment, UniProt O00444 886-964) QLLKSVFVKNVGWATQLTSGAVWVQFNDGSQLVVQAGVSSISYTSPNGQTTRYGENEKLPDYIKQKLQCLSSILLMFSN	no binding
full-length mouse PLK5 fused to the GAL4 activation domain (enzyme, UniProt Q4FZD7 1-595) MEPRSRRRRSRQLVATFLRDPGSGRVYRRGKLIGKGAFSRCYKLTDMSTSAVFALKVVPRGGAGRLRLRGKVEREIALHSRLRHRNIVAFHAHFADRDHVYMVLEYCSRQSLAHVLKVRRTLTEPEVRYYLRGLVSGLRYLHQQRIVHRDLKPSNFFLNKNMEVKIGDLGLAARVGPAGRCHRVLCGTPNFQAPEVVSRNGHSCKSDIWALGCIMYTVLTGTPPFAAAPLSEMYQNIRDGHYLEPTHLSPSARSLIARLLAPDPAERPSLDHLLQDDFFSQGFTPERLPPHSCHSPPVFAFPPPLGRLFRKVGQLLLTQCRPPCPFTSKEASGPGEEGTEPDHMEAGNEERDPLCTEGRIHLLTLGTPRTGLAGPKGSLALQLEVATRKLFLCLDAGPMAGQDPPGEQRPVLWAPKWVDYSLKYGFGYQLSDGGSGVLFRDGSHMALRPQGGHVSYQPDQGTLWTFTLRDVPSPLRAKLAVLRLFACYMQRRLREEGTVPMPATPASPDISLLSFIADSQAMVMLFSNGTVQVSLKTSQTQLVLSGEDEDLLLTLQEPGGPAVGVSYTLDVLRSHGFTLAVHHHLRHGLHLLQSV	no binding
full-length human PLK5 fused to the GAL4 activation domain (protein, UniProt Q496M5 1-336) MYTVLTGTPPFMASPLSEMYQNIREGHYPEPAHLSANARRLIVHLLAPNPAERPSLDHLLQDDFFTQGFTPDRLPAHSCHSPPIFAIPPPLGRIFRKVGQRLLTQCRPPCPFTPKEASGPGEGGPDPDSMEWDGESSLSAKEVPCLEGPIHLVAQGTLQSDLAGPEGSRRPEVEAALRHLQLCLDVGPPATQDPLGEQQPILWAPKWVDYSSKYGFGYQLLDGGRTGRHPHGPATPRREGTLPTPVPPAGPGLCLLRFLASEHALLLLFSNGMVQVSFSGVPAQLVLSGEGEGLQLTLWEQGSPGTSYSLDVPRSHGCAPTTGQHLHHALRMLQSI	no binding
